# In PubChem BioAssay AID504834 (National Center for Advancing Translational Sciences (NCATS), 2011):
# In all, about 320,000 compounds went through this assay and about 22,000 (6.9%) were called active. Inconclusive results, whose numbers are uncertain, are shown with a selection of clear calls. The call rests on the fitted dose curve; in most records, active means well fitted inhibition curve with a large enough effect; inconclusive means small, poorly fitted or top-dose-only effect, or another doubt; inactive means no such curve, though single readings can be large or run the other way. A potency beside an inconclusive call is a rough fit, not a confirmed value. More than one record can exist for a structure, and the calls need not agree.
# Test: Primary qHTS for delayed death inhibitors of the malarial parasite plastid, 96 hour incubation
# Conditions: P. falciparum luciferase reporter growth; series mostly up to 28.7 µM; activity change, negative = inhibition: at the top concentration
# Method in brief: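 Two parasite generations (96 h, 37 C, 5% CO2) of compound exposure in infected erythrocytes (0.05% parasitemia, 2% hematocrit). Luciferase-reporter P. falciparum; decreased luminescence indicates inhibited growth, aimed at apicoplast-acting delayed death.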
# On the % scale 0 is the no-effect control and ±100 the full control effect; potency means the concentration at half of the fitted maximal effect.
SMILES,Potency,"activity change, negative = inhibition"
O=C(CSc1cn(CCNC(=O)c2ccccc2)c2ccccc12)NCC1CCCO1 (stereo not given),"inconclusive: 11.7 µM [inhibitor, partial curve]",
O=C1NNC(=O)C2C3C=CC(C4CC34)C12 (stereo not given),,inactive: 19.8%
CN(C(=O)COC(=O)C12CC3CC(CC(Cl)(C3)C1)C2)C1(C#N)CCCCC1,"inconclusive: 5.22 µM [inhibitor, partial curve, poor fit]",
CCOC(=O)c1ccccc1NC(=O)Cn1c(=O)n(Cc2ccccc2)c(=O)c2c(C)c(C)sc21,"inconclusive: 18.5 µM [inhibitor, single point]",
Cc1ccc(Nc2nnc(SC/C(O)=C(\C#N)c3nc4ccccc4[nH]3)s2)c(C)c1,"inconclusive: 18.5 µM [inhibitor, partial curve, poor fit]",
CCOc1ccc(NC(=O)c2ccc(NC(=S)NC3CC3)cc2)cc1,,inactive: 2.52%
O=C(O)c1nc(Cl)c(Cl)c(N/N=C/c2ccccc2C(F)(F)F)c1Cl,"inconclusive: 18.5 µM [inhibitor, single point]",
CCNc1nc(NC(C)C)nc(Oc2ccc(OCCOc3ccc(C)cc3)nn2)n1,active: 11.7 µM,
COc1cccc(NC(=S)N(CCN(C)C)C(C)c2ccco2)c1 (stereo not given),"inconclusive: 18.5 µM [inhibitor, single point]",
COc1ccc(OCC(=O)Nc2ccc(N3CCN(C(=O)c4ccccc4C)CC3)cc2)cc1,"inconclusive: 0.208 µM [inhibitor, partial curve, poor fit]",
Cc1ccccc1/C=C/C(=O)N1CCOCC1,,inactive: 31.3%
Cc1noc(C)c1S(=O)(=O)N1CCCC(C(=O)NCCC2=CCCCC2)C1 (stereo not given),"inconclusive: 0.0329 µM [inhibitor, full curve, poor fit]",
CCOc1cc(C2c3c(oc4ccccc4c3=O)C(=O)N2c2nccs2)ccc1O (stereo not given),,inactive: -4.43%
C(=C\c1ccccc1)/C=N/Nc1nc(N2CCCCC2)nc(N2CCCCC2)n1,"inconclusive: 0.0033 µM [inhibitor, full curve, poor fit]",
Cc1ccccc1Nc1nc(-c2sc(NC(=O)c3ccco3)nc2C)cs1,"inconclusive: 13.1 µM [inhibitor, single point]",
Cc1ccc(C2CC(=O)c3cnc(N4CC(C)CC(C)C4)nc3C2)cc1 (stereo not given),"inconclusive: 11.7 µM [inhibitor, single point]",
CN(C(=S)Nc1ccc(F)cc1)C(c1ccccc1)c1ccccc1,"inconclusive: 13.1 µM [inhibitor, single point]",
CCCn1c(N)c(C(=O)COC(=O)CNC(=O)c2ccccc2OCC)c(=O)[nH]c1=O,"inconclusive: 0.0928 µM [inhibitor, full curve, poor fit]",
COc1ccc([N+](=O)[O-])cc1NC(=O)CSc1nc(C)cc(C)n1,"inconclusive: 14.7 µM [inhibitor, partial curve, poor fit]",
c1ccc(OCCSc2nnnn2C2CCCCC2)cc1,,inactive: -13.9%
CC(/C=N/NC(=O)Cc1cccs1)=C\c1ccco1,,inactive: -25.2%
O=C(COC(=O)c1ccc(F)cc1)NCCCc1ccccc1,,inactive: 36.7%
FC(F)Oc1ccc(NC(=S)NC2CCCCCCC2)cc1,"inconclusive: 18.5 µM [inhibitor, single point]",
N=c1c(C(=O)NCC2CCCO2)cc2c(=O)n3ccccc3nc2n1Cc1ccccc1Cl (stereo not given),"inconclusive: 10.4 µM [inhibitor, single point]",

SMILES,Potency,"activity change, negative = inhibition"
Cc1ccsc1C(=O)NNC(=S)NC1CCCCC1,active: 9.28 µM,
Cc1ccc(NC(=O)c2ccc(S(=O)(=O)NCc3ccco3)cc2)cc1,"inconclusive: 4.15 µM [inhibitor, partial curve, poor fit]",
COc1cccc(-c2nc(CS(=O)CC(=O)NCCCOC(C)C)c(C)o2)c1 (stereo not given),,inactive: 0%
Cc1c(Br)c([N+](=O)[O-])nn1C(C)C(=O)NCC1CCCO1 (stereo not given),"inconclusive: 9.28 µM [inhibitor, partial curve, poor fit]",
COc1ccc(NC(C)=O)cc1S(=O)(=O)NC(Cc1ccccc1)C(=O)NCc1ccccc1C (stereo not given),"inconclusive: 0.37 µM [inhibitor, partial curve]",
CC1CCN(Cc2c(C(=O)O)nnn2-c2nonc2N)CC1,active: 1.47 µM,
CC(NC(=O)Nc1cccc(F)c1)c1ccc2c(c1)OCO2 (stereo not given),"inconclusive: 16.5 µM [inhibitor, partial curve, poor fit]",
O=C(CN1C(=O)NC2(CCOc3ccccc32)C1=O)c1ccc[nH]1 (stereo not given),,inactive: 17.3%
CC(C)(Oc1ccc(Cl)cc1)C(=O)Nc1ncccn1,"inconclusive: 10.4 µM [inhibitor, single point]",
Cc1ccc(-n2c(Cn3nc(C(F)F)cc3C(F)F)n[nH]c2=S)cc1,"inconclusive: 0.0029 µM [inhibitor, full curve, poor fit]",
Cc1cc(N2CCN(C(c3ccccc3)c3ccc(Cl)cc3)CC2)n2ncnc2n1 (stereo not given),"inconclusive: 18.5 µM [inhibitor, single point]",
N=c1n(CCc2ccccc2)c2ccccc2n1Cc1ccccc1F,"inconclusive: 18.5 µM [inhibitor, single point]",
CCCCN1C(=S)NC[C@@H]1Cc1ccccc1,"inconclusive: 18.5 µM [inhibitor, single point]",
OCC(Cc1ccc2c(c1)OCO2)C(CO)Cc1ccc2c(c1)OCO2 (stereo not given),"inconclusive: 3.29 µM [inhibitor, partial curve]",
CCCc1cc(Nc2cccc(OCC)c2)n2ncnc2n1,,inactive: -7.45% [at 5.75 µM]
CCOC(=O)c1cnc(SCC(=O)OC)nc1N,"inconclusive: 4.15 µM [inhibitor, full curve, poor fit]",
COc1cc(OC)cc(C(=O)n2cnnc2N)c1,"inconclusive: 18.5 µM [inhibitor, single point]",
CC(C)c1ccc(/C=N/Nc2ccc(C(=O)O)cc2)cc1,,inactive: -22.6%
N#CCSc1nnc(C2CCCCC2)n1Cc1ccccc1,active: 3.29 µM,
N[C@@H](Cc1ccc(N(CCCl)CCCl)cc1)C(=O)O,active: 9.53 µM,
CC1(c2ccccc2)CC(C)(C)N2C(=O)C3(C(C#N)=C(N)Oc4cc(O)ccc43)c3cccc1c32 (stereo not given),"inconclusive: 0.928 µM [inhibitor, full curve]",
COC(=O)c1c(-c2ccccc2OC)sc2ccc(OC)cc12,"inconclusive: 10.4 µM [inhibitor, single point]",
Cc1cc(C)cc(NC(=O)c2snc3c(=O)[nH]cnc23)c1,"inconclusive: 1.17 µM [inhibitor, full curve]",
COc1ccc(C(=O)NNC(=S)NC(=O)c2ccco2)cc1,"inconclusive: 9.28 µM [inhibitor, partial curve]",

# 3 compounds picked at random from those above, as already listed:
SMILES,Potency,"activity change, negative = inhibition"
Cc1ccsc1C(=O)NNC(=S)NC1CCCCC1,active: 9.28 µM,
N=c1n(CCc2ccccc2)c2ccccc2n1Cc1ccccc1F,"inconclusive: 18.5 µM [inhibitor, single point]",
CCOC(=O)c1cnc(SCC(=O)OC)nc1N,"inconclusive: 4.15 µM [inhibitor, full curve, poor fit]",

# Further records follow:

SMILES,Potency,"activity change, negative = inhibition"
Cc1c(C)n(C)c2ccc(C(=O)NCCCN3CCCCC3)cc12,"inconclusive: 10.4 µM [inhibitor, single point]",
Cc1sc2nc(C3CCCCC3)nc(SCC(=O)N3CC(=O)Nc4ccccc43)c2c1C,active: 4.65 µM,
CCCC(=O)Nc1ccc(C(=O)NNC(=O)c2ccco2)cc1,,inactive: 60.9%
CC(NC(=O)C1CSC2(C)CCC(=O)N12)c1ccccc1Cl (stereo not given),"inconclusive: 18.5 µM [inhibitor, single point]",
CC(C)Cc1ccc(CN2CCCC(NC(=O)c3ccoc3)C2)cc1 (stereo not given),,inactive: 64.2%
COCCOC(=O)C1=C(C)NC2=C(C(=O)CC(C)(C)C2)C1c1ccc(N(C)C)cc1 (stereo not given),"inconclusive: 10.4 µM [inhibitor, single point]",
CCC(C)NC(=O)Cn1cc(S(=O)(=O)N2CCN(c3ccccc3F)CC2)c2ccccc2c1=O (stereo not given),"inconclusive: 0.0066 µM [inhibitor, full curve, poor fit]",
Cc1ccc(S(=O)(=O)N2CCN(C(=O)COC(=O)c3cccc(Cl)c3)CC2)c(C)c1,,inactive: -29.7%
CCCNC(=O)c1cc(-c2ccc(OC)cc2)on1,"inconclusive: 14.7 µM [inhibitor, partial curve, poor fit]",
COc1cccc(CN(C)C(=O)c2cc(S(=O)(=O)NC3CCCCC3)ccc2C)c1OC,"inconclusive: 18.5 µM [inhibitor, single point]",
CC(=O)c1ccc(NC(=O)CNCc2cccs2)cc1,,inactive: 38.6%
COc1ccc(C2=NCCn3nc4cc(C(F)(F)F)ccc4c32)cc1,"inconclusive: 18.5 µM [inhibitor, single point]",
Cc1ccc(Nc2nc(N/N=C/c3c[nH]c4ccccc34)nc(N3CCOCC3)n2)cc1,"inconclusive: 18.5 µM [inhibitor, single point]",
Cc1ccn2c(=O)nc(SCC(=O)N3CCC(Cc4ccccc4)CC3)nc2c1,"inconclusive: 5.86 µM [inhibitor, partial curve]",
OCC1(CCc2ccccc2)CCN(Cc2ccc(OC(F)F)cc2)CC1,active: 13.1 µM,
CCOc1cc(S(=O)(=O)NCc2cccnc2)c(C)cc1C,"inconclusive: 18.5 µM [inhibitor, single point]",
COc1ccc(S(=O)(=O)N(C)c2ccc(C(=O)N3CCN(C)CC3)cc2)cc1,"inconclusive: 18.5 µM [inhibitor, single point]",
NCC(c1ccco1)c1c[nH]c2ccccc12 (stereo not given),,inactive: 33.9%
O=C(O)c1cccc([N+](=O)[O-])c1C(=O)Nc1nc2ccccc2s1,,inactive: 47.2%
COc1ccc(OCCOCCOc2ccc(C)cc2[N+](=O)[O-])cc1,,inactive: -29.9%
O=C(N/N=C/c1ccc[nH]1)c1ccccc1OCc1ccccc1Cl,"inconclusive: 7.38 µM [inhibitor, partial curve]",
O=C(c1ccco1)N1CCN(C(=O)c2sccc2-c2ccccc2)CC1,"inconclusive: 2.62 µM [inhibitor, full curve, poor fit]",
